In one data set the test system is isolated rat hearts. The experiment in a line: Langendorff-perfused isolated rat heart: mechanical performance (RPP, HR, ±dP/dt, cardiac efficiency). The procedure:
Male Wistar rats (250–300 g) were injected with heparin (10^3 U·kg^−1, i.p.) 20 minutes prior to anesthesia with pentobarbital (100 mg·kg^−1, i.p.). When bilateral corneal reflex was absent, the heart was excised through an abdominal approach. Then, the ascending aorta was visualized and cut and the heart was placed in a cardioplegic solution. To avoid ischemia, the time between cutting the diaphragm to placing the heart in the solution was less than 60 seconds. The hearts were mounted in accordance with the Langendorff model and perfused at a constant flow (12 ml·min^−1) with a Krebs-Henseleit buffer as previously described. A latex balloon connected to a pressure transducer filled with saline solution was inserted into the left ventricle after establishing autonomous contraction. The pulmonary artery was cannulated and connected to a closed chamber using a Clark-type oxygen electrode (Yellow Springs Instruments, Yellow Springs, Ohio) to measure myocardial oxygen consumption (MVO2) in the coronary effluent. The rate of MVO2 was calculated as the difference between the concentration in the K-H buffer before (100%) and after perfusion. Data Trax software (WPI, Sarasota, Florida) was used for continuous recording of the heart rate (HR), left ventricular pressure (LVP), MVO2, and maximum positive and negative derivative of left ventricular pressure (±dP/dt). The baseline was established during 10–15 minutes of K-H perfusion. Each concentration of Cas or Doxo remained in the heart for 30 min. Hearts in the control group were perfused with K-H buffer during the whole experimental time. Rate pressure product (RPP = HR × LVP) and cardiac efficiency ([…]) were calculated as previously reported.

The test system of data set [1] is adult rat ventricular myocytes. Kind of data set: Cardiomyocyte viability, Alamar Blue. It counts as cell-based. The settings on record: LD50 comparison. From the text: Ventricular cardiomyocytes were obtained from male Wistar rats (250–300 g) by digestion with collagenase type II as previously described. Cells were washed in Tyrode solution (mM): 130 NaCl, 5.4 KCl, 0.4 NaH2PO4, 0.5 MgCl2, 25 HEPES, and 5 glucose with pH 7.4. After isolation, cells were cultivated at a density of 3.2 × 10^3 viable cells/well in 96-well plates pretreated with laminin in M-199 medium supplemented in mM with 5 taurine, 5 creatine, 2 L-carnitine, 2.5 sodium pyruvate, and penicillin-streptomycin at 100 U·ml^−1 and 100 μg·ml^−1, respectively, at 37°C, with 5% CO2 and 95% air. After incubation for three hours, varying concentrations of Cas were tested in triplicate, exposing the myocytes during 24 hours to each treatment. At the end of the incubation period, the cytotoxicity of Cas was measured using the Alamar Blue viability test (Life Technologies, Carlsbad, CA, USA). Release of cytoplasmic lactate dehydrogenase (LDH) was determined using CytoTox-ONE homogeneous membrane integrity kit (Promega Madison, WI, USA). The activity of caspases 3/7 and caspase 9 was measured in cell lysates using caspase-Glo 3/7 and caspase-Glo 9 test luminescent assay (Promega, Madison, WI, USA), respectively. The cardiomyoblast cell line H9c2 (ATCC CRL-1446) was maintained using standard procedures in DMEM supplemented with 10% fetal bovine serum prior to the oxidative stress experiments.
A general note: Resazurin is reduced to fluorescent resorufin, in cell work by metabolically active cells.

Take `Cc1ccnc2c1ccc1c(C)ccnc12.NCC(=O)[O-].O.O.O=[N+]([O-])[O-].[Cu+2]` [Cas II-gly, Aqua(4,7-dimethyl-1,10-phenanthroline)(glycinate)copper(II)nitrate]: in the data set with isolated rat hearts (IC50 comparison), the “more potent inhibitor of cardiac contractility compared to III-ia” value was 2 fold. Besides, the “higher toxicity compared to III-ia” value in data set [1] was 3 fold.

On to `CC(=O)C=C(C)[O-].Cc1ccnc2c1ccc1c(C)ccnc12.O.O.O=[N+]([O-])[O-].[Cu+2]` [Cas III-Ea, Aqua(4,7-dimethyl-1,10-phenanthroline)(acetylacetonate)copper(II)nitrate], for which, in the data set on isolated rat hearts (IC50 comparison), the “more potent effect on RPP than Doxo” value worked out at 3.8 fold and the “more potent inhibitor of cardiac contractility compared to III-ia” value is 7 fold. The “higher toxicity compared to III-ia” value in data set [1] is 3 fold.

As for `CC(=O)C=C(C)[O-].Cc1ccnc(-c2cc(C)ccn2)c1.O.O.O=[N+]([O-])[O-].[Cu+2]` [Cas III-ia, Aqua(4,4-dimethyl-2,2′bipyridine)(acetylacetonate)copper(II)nitrate], the “inhibitory effect on RPP slower than that of III-Ea” value with isolated rat hearts (5 μM, time-dependent) is recorded as 2.3 fold.

The record behind these values is article PMC5889877, “Ex Vivo Cardiotoxicity of Antineoplastic Casiopeinas Is Mediated through Energetic Dysfunction and Triggered Mitochondrial-Dependent Apoptosis” (Oxidative Medicine and Cellular Longevity, 2018).
